No constants are given. Whether binding was seen depends on the method and setting. In cells and extracts the contact can be indirect. Here binding means that the protein was enriched with, or labelled near, the bait; the list need not be complete.
How the values were obtained:
[1] = target: BR-FLAG, over-expressed in HEK293T (human) (UniProt Q69YU5); test: affinity purification with mass spectrometry; mitochondria of HEK293T over-expressing BR-FLAG (untagged BR as control) solubilized in IP buffer with 1% DDM; anti-FLAG M2 resin overnight, elution with 0.1% Rapigest; TMT-labelled LC/MS
[2] = target: BRAWNIN (endogenous, HEK293T mitochondria) (human (endogenous in HEK293T)) (UniProt Q69YU5); test: affinity purification with mass spectrometry; HEK293T mitochondria solubilized in IP buffer (150 mM NaCl, 1 mM EDTA, 50 mM HEPES-KOH pH 7.4) with 1% DDM; BR antibody (Novus NBP1-90536) or rabbit IgG control overnight, protein A/G beads, washes with 0.5% DDM, elution with 0.1% Rapigest; TMT-labelled LC/MS; endogenous or over-expressed untagged BR as bait
[3] = target: BRAWNIN, untagged, over-expressed in HEK293T (human) (UniProt Q69YU5); test: as above

Measured: binding

B1: GHITM (endogenous, HEK293T mitochondria) (protein, UniProt Q9H3K2 46-345)
chain: ATKTRIGIRRGRTGQELKEAALEPSMEKIFKIDQMGRWFVAGGAAVGLGALCYYGLGLSNEIGAIEKAVIWPQYVKDRIHSTYMYLAGSIGLTALSAIAISRTPVLMNFMMRGSWVTIGVTFAAMVGAGMLVRSIPYDQSPGPKHLAWLLHSGVMGAVVAPLTILGGPLLIRAAWYTAGIVGGLSTVAMCAPSEKFLNMGAPLGVGLGLVFVSSLGSMFLPPTTVAGATLYSVAMYGGLVLFSMFLLYDTQKVIKRAEVSPMYGVQKYDPINSMLSIYMDTLNIFMRVATMLATGGNRKK
binds: [1] | [2] | [3]

From paper PMC7066179
